The assay deals with T1, full-length Kir4.1, N-terminal tags cleaved off (UniProt P78508).
T1 sequence: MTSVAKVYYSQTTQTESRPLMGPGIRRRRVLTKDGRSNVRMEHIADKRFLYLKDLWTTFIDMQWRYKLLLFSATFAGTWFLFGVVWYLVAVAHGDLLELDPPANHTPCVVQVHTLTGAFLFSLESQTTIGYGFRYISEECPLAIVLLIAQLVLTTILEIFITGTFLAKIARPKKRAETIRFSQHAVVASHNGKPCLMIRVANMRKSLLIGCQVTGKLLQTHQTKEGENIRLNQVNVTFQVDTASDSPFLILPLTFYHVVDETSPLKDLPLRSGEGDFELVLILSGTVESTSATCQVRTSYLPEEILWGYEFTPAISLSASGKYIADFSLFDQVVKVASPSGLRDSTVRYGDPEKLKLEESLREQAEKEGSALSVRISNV
Nature of the assay: affinity purification with mass spectrometry; FLAG-GFP-Kir4.1 stably expressed in HEK293; membranes solubilised in 1% LMNG and 0.12% CHS; FLAG resin, eluted by HRV 3C cleavage, Superose 6 SEC in GDN buffer at pH 8.0, pH 6.0 or 500 mM KCl; tetramer fractions and gel bands (top two Kir4.1 bands, ~10 kDa band) analysed by peptide mass ….

No constants are given. Whether binding was seen depends on the method and setting. In cells and extracts the contact can be indirect. Here binding means that the protein was enriched with, or labelled near, the bait; the list need not be complete. Sequences can lack the tags named with a protein.

Consider “dynein light chain 1 (human (endogenous in HEK293))”, for which the binding entry is “binds”.

Source of the values: publication PMC11999606, “Dynein light chains 1 and 2 are auxiliary proteins of pH-sensitive Kir4.1 channels” (The Journal of Biological Chemistry, 2025).
